Patent publication US20240285727A1, “NOVEL THERAPEUTIC PEPTIDES FOR NEURODEGENERATION” (UNIVERSITY OF SOUTHERN CALIFORNIA, priority 2021, published 2024)
Not every detail of the peptide structures is certain; ends, links or a residue may be inferred. Ends that are not written are not given here.

Test system: C57BL/6J mice fed a high fat diet
Experiment: SHMOOSE in vivo: daily IP injections to mice fed a high fat diet, two weeks
Set-up: species or system mouse
Source text: The inventors also injected SHMOOSE intraperitoneally (IP) to 12-week-old C57BL/6J mice fed a high fat diet (i.e., a mild metabolic perturbation). At the conclusion of the two-week study, the inventors harvested brain and liver for RNA-Seq. As the inventors observed for SHMOOSE.D47N carriers and in in vitro experiments, 367 differentially expressed genes under a p adjusted value of 0.05 enriched mitochondrial and ribosomal terms in the liver (FIG. 3C). That is, liver expression differences were observed after SHMOOSE IP injections. Brain hypothalamus expression differences were also observed after SHMOOSE IP injections. Further, cortical expression differences were observed after SHMOOSE IP injections. However, while the inventors observed global gene expression changes as illustrated by PCA in the mouse cortex and hypothalamus, most enriched terms included central nervous system-related terms, not ribosomes nor mitochondrial specifics (FIG. 17). Furthermore, brain hippocampus expression differences were observed after SHMOOSE IP injections.
To examine the transcriptomes of mice treated with SHMOOSE, 12-week-old male […] mice were obtained from The Jackson Laboratory. Mice were fed a high fat diet for 10 days (60% total calories) prior to initiation of SHMOOSE daily IP injections (2.5 mg/kg). No more than 60 ul of volume were injected IP. After two weeks of IP injections, mice were euthanized following food withdrawal overnight, then brain was rapidly removed, hypothalamus extracted, and hemisected midsagittal. Hemibrains were further microdissected to extract the hippocampus and cortex. Tissues were snap frozen and RNA was extracted by adding 100 ul of TRIzol (Thermo Scientific) per 10 mg tissue. Homogenates were then spun down at 16,000 RCF for 60 seconds and processed using the Quick-RNA Miniprep Kit (Zymo Research). High quality RNA used for library preparation (mRNA-Seq Nu Quant), which captures poly-adenylated RNA. From there, prepped samples were sequenced on an Illumina NextSeq 550 platform for 75 single end cycles and fastq files were quality ensured using FastQC and mapped to the mouse reference genome (GRCm39) using kallisto.

For “MPPCLTTWLSQLLKDNSYPLVLGPKNFGATPNKSNNHAHYYNHPNPDFPNSPHPYHPR [SHMOOSE]”, the AST levels (after two weeks, high fat diet, vs control, p value<0.1) was “lower”, the ALT levels (after two weeks, high fat diet, vs control, p value<0.2) was “lower” and the weight gain (high fat diet, IP 2.5 mg/kg daily, two weeks, vs control) was “attenuated weight gain”. For the same sequence, the “hypothalamic neuron activation measured by cFOS” value (mouse, in vivo) was “activates hypothalamic neurons” and the food intake (two weeks, high fat diet) was “did not change food intake”.
